The supplement of paper PMC12889115
The list shows a part of the results. Values are raw readings; no control value is given beside them.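 Primary screen: polymyxin B was added at a level permeabilizing Salmonella outer membranes while sparing inner membranes. DMSO wells, both with and without polymyxin B, established maximum growth. Plate-to-plate variation meant each plate was ranked on its own, and the lowest-OD600 compounds were selected as hits.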

System: Salmonella enterica serovar Typhimurium SL1344
Assay: bacterial growth OD600 after 18 h with compound and polymyxin B; higher = more bacterial growth (less inhibition)
Conditions: 50 µM, Mueller-Hinton broth

## Cc1ccc(CN(C)Cc2cnc(S(=O)(=O)Cc3ccccc3)n2CC(C)C)o1
Polymyxin B 0.75 µg/mL
  bacterial growth OD600: 0.632

## COc1cc(C(=O)N(C)CCc2cnn(C)c2)ccc1OC1CCN(C2CCCC2)CC1
Polymyxin B 1 µg/mL
  bacterial growth OD600: 0.889

## COc1ccc(C(=O)NC2CC(=O)N(Cc3ccc(F)cc3)C2)cc1C (stereo not given)
Polymyxin B 1 µg/mL
  bacterial growth OD600: 0.909

## CCCc1cc(CNC(=O)c2ccc(N3CCN(CC)CC3)nc2)on1
Polymyxin B 1 µg/mL
  bacterial growth OD600: 1.15

## O=C(CCc1ccc2c(c1)OCO2)NCCN1Cc2ccccc2OC(c2ccsc2)C1 (stereo not given)
Polymyxin B 0.75 µg/mL
  bacterial growth OD600: 0.484

## Cn1cc(CN2CCc3c([nH]c4ccccc34)C2C2CCCCC2)cn1 (stereo not given)
Polymyxin B 0.75 µg/mL
  bacterial growth OD600: 0.697

## O=C1CC(NS(=O)(=O)N2CCCCC2)CN1CCc1ccc(F)cc1 (stereo not given)
Polymyxin B 1 µg/mL
  bacterial growth OD600: 0.831

## O=C(NCC1Cc2cc(Cl)cc(-c3ccncc3)c2O1)[C@@H]1C[C@@H]2C=C[C@H]1C2 (stereo not given in full)
Polymyxin B 0.75 µg/mL
  bacterial growth OD600: 0.004

## COc1c(C)cc(C(=O)C2CCCN(Cc3csc(C(C)=O)c3)C2)cc1C (stereo not given)
Polymyxin B 1 µg/mL
  bacterial growth OD600: 0.713

## CC(C)/C=C/C(=O)N1CCC(C2(c3cccnc3)NC(=O)N(CCc3cccs3)C2=O)CC1 (stereo not given)
Polymyxin B 0.75 µg/mL
  bacterial growth OD600: 0.859

## Cc1cccnc1CNC(=O)CC(c1ccccc1)c1ccc2c(c1)OCO2 (stereo not given)
Polymyxin B 0.75 µg/mL
  bacterial growth OD600: 0.468

## O=C(NCC(F)(F)F)C1CCC(=O)N(CCc2cccc(F)c2)C1 (stereo not given)
Polymyxin B 1 µg/mL
  bacterial growth OD600: 0.994

## Cc1c(CN2CCOc3ccc(C4=CCCCC4)cc3C2)c(=O)n(-c2ccccc2)n1C
Polymyxin B 0.75 µg/mL
  bacterial growth OD600: 0.011

## O=C(c1ccc(-c2ccccc2)c(F)c1)C1CCCN(Cc2cccnc2)C1 (stereo not given)
Polymyxin B 1 µg/mL
  bacterial growth OD600: 0.364

## COc1ccccc1C(=O)Nc1cccc(N2CCC(N[C@@H](Cc3ccccc3)C(N)=O)CC2)c1
Polymyxin B 0.75 µg/mL
  bacterial growth OD600: 0.972

## O=C(NC1CC(=O)N(Cc2cccc3ccccc23)C1)C1CCC1 (stereo not given)
Polymyxin B 1 µg/mL
  bacterial growth OD600: 0.931

## CC(=O)N1CCC[C@H]1C(=O)N1CCOc2ccc(CN3CCC(OCc4ccccc4)CC3)cc2C1
Polymyxin B 0.75 µg/mL
  bacterial growth OD600: 0.834

## COCc1noc(-c2ccc(N(C)C(C)Cc3cc(C)ccn3)nc2)n1 (stereo not given)
Polymyxin B 1 µg/mL
  bacterial growth OD600: 0.942

## Cc1ccc(Oc2ncccc2CNc2ncccn2)c(F)c1F
Polymyxin B 1 µg/mL
  bacterial growth OD600: 0.852

## COc1ccccc1-c1ccnc(-n2ncc(C(=O)NCCc3cccs3)c2C2CC2)n1
Polymyxin B 0.75 µg/mL
  bacterial growth OD600: 0.55
